Values quoted from earlier work in US11471445B2, “Compositions for the prevention and treatment of acute renal injury” (AKI Therapeutics ApS, priority 2017, dated 2022).
At least one compound was matched to its structure with a doubt left.

Tests used:
[1] = test system: cerebral ischemia-reperfusion injury; settings: mice
myocardial IRI = settings: pretreatment, rat myocardial IRI
renal IRI = settings: rat, in vivo
[2] = conversion to sirolimus

Row | Compound | effect on cerebral ischemia-reperfusion injury [1] | cardiomyocyte apoptosis (myocardial IRI) | release of myocardial damage marker enzymes LDH and CK (myocardial IRI) | effect on renal IRI (renal IRI) | progression of cyclosporin A nephrotoxicity after conversion [2]
1 | C=C(C)[C@@H]1CC[C@]2(C(=O)O)CC[C@]3(C)[C@H](CC[C@@H]4[C@@]5(C)CC[C@H](O)C(C)(C)[C@@H]5CC[C@]43C)[C@@H]12 [Betulinic acid] | protected against cerebral ischemia-reperfusion injury | reduced cardiomyocyte apoptosis | reduced the release | protected against renal IRI | –
2 | CO[C@H]1C[C@@H]2CC[C@@H](C)[C@@](O)(O2)C(=O)C(=O)N2CCCC[C@H]2C(=O)O[C@H]([C@H](C)C[C@@H]2CC[C@@H](O)[C@H](OC)C2)CC(=O)[C@H](C)/C=C(\C)[C@@H](O)[C@@H](OC)C(=O)[C@H](C)C[C@H](C)/C=C/C=C/C=C/1C [sirolimus] | – | – | – | – | prevents the progression
